The supplement of paper PMC12823440, “Inhibitors supercharge kinase turnover through native proteolytic circuits” (Nature, 2025)
This is one part of the list. The calls rarely recur for the same compound in another form.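 In K562 cells expressing nanoluciferase-fused kinases, luminescence was recorded at 4 h intervals between 2 and 18 h, normalized as percent of control with DMSO at 100% and a positive control at 0%. A significant (2 sigma) signal drop marks a time point as decreased. The authors' rule for a hit is not shown and takes in more than the number of time points.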

Chains of the proteins cited; added tags and fusions are not shown. Lines headed by an entry give the natural chain unless they say otherwise; changes in a name come on top.
UniProt Q15208: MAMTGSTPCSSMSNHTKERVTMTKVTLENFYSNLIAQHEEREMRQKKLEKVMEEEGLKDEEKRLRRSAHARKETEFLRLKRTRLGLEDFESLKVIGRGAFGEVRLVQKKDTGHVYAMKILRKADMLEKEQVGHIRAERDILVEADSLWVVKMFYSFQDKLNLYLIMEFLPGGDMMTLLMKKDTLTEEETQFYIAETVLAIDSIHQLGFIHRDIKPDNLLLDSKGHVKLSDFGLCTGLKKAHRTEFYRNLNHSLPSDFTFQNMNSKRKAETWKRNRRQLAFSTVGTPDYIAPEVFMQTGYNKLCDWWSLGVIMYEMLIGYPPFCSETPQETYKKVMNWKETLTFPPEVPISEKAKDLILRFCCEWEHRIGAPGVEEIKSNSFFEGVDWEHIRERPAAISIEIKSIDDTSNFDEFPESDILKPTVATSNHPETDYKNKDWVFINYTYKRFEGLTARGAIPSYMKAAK
UniProt P42680: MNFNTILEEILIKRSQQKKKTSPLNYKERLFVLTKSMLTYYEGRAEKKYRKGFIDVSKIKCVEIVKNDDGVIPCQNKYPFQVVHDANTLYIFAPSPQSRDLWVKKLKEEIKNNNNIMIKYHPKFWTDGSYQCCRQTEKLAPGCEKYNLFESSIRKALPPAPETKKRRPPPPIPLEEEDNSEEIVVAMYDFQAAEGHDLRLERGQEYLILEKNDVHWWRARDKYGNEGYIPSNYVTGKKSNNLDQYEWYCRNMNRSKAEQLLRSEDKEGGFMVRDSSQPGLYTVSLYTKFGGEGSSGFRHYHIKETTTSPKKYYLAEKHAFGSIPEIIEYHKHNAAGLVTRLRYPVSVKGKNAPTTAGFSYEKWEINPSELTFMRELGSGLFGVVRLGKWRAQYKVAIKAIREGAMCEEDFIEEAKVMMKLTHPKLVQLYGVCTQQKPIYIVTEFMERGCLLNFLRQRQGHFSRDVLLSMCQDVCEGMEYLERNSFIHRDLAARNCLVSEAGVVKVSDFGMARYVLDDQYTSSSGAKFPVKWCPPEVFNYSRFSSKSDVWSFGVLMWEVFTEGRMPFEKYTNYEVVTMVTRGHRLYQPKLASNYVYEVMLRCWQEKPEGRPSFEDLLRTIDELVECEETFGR
UniProt P07947, whole entry, looked up: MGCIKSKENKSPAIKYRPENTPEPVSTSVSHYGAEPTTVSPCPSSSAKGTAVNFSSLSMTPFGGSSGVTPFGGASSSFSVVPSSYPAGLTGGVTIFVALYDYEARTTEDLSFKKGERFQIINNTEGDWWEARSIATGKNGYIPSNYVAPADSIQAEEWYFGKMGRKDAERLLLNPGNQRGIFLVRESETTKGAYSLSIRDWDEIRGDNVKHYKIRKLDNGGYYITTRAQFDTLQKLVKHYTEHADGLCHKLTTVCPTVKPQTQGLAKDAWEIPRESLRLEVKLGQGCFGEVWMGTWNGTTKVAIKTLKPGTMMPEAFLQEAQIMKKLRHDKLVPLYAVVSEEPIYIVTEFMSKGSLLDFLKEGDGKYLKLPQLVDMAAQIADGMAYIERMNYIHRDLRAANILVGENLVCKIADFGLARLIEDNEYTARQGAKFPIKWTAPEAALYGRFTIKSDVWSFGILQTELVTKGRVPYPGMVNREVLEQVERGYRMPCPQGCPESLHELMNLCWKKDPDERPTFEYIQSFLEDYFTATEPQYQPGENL
UniProt P00519, whole entry: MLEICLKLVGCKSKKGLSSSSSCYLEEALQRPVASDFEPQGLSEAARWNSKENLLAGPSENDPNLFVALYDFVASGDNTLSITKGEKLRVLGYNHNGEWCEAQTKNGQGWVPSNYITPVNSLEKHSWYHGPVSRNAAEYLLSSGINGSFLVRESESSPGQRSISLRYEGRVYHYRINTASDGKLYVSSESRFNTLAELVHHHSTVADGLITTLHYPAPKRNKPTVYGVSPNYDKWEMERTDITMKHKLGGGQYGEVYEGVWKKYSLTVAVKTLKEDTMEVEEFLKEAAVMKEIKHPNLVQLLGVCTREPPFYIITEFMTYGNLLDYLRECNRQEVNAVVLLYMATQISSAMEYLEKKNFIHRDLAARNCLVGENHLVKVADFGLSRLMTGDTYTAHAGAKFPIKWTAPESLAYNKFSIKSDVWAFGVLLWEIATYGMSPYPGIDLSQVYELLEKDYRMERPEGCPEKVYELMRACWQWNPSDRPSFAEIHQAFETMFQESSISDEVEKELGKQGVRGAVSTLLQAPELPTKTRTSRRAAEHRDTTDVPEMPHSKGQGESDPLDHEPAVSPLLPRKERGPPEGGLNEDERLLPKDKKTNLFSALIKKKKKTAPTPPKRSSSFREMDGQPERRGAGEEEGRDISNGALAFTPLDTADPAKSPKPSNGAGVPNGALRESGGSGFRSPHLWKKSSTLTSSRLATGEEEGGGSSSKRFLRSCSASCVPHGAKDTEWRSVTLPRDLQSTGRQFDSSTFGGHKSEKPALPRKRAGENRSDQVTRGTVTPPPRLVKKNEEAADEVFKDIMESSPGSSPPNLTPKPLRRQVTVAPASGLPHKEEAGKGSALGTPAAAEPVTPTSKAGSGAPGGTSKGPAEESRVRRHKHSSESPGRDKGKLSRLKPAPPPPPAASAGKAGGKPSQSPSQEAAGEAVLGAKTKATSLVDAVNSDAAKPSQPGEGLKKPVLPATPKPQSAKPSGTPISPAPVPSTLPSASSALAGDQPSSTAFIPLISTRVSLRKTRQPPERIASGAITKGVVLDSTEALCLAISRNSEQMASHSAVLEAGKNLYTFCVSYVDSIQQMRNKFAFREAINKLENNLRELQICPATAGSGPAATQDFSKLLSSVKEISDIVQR
UniProt P31749: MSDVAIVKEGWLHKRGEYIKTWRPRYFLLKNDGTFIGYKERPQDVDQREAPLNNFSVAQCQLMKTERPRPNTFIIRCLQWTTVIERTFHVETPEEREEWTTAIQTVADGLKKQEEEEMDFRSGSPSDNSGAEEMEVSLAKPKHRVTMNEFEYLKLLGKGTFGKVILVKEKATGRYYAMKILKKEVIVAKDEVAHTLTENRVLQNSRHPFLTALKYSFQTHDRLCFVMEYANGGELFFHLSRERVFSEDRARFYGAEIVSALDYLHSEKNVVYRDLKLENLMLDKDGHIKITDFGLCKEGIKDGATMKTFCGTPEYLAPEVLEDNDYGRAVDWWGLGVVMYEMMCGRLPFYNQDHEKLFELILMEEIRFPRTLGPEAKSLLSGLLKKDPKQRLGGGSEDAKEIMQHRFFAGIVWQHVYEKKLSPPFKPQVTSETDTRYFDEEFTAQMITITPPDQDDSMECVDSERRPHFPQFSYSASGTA
UniProt P10398: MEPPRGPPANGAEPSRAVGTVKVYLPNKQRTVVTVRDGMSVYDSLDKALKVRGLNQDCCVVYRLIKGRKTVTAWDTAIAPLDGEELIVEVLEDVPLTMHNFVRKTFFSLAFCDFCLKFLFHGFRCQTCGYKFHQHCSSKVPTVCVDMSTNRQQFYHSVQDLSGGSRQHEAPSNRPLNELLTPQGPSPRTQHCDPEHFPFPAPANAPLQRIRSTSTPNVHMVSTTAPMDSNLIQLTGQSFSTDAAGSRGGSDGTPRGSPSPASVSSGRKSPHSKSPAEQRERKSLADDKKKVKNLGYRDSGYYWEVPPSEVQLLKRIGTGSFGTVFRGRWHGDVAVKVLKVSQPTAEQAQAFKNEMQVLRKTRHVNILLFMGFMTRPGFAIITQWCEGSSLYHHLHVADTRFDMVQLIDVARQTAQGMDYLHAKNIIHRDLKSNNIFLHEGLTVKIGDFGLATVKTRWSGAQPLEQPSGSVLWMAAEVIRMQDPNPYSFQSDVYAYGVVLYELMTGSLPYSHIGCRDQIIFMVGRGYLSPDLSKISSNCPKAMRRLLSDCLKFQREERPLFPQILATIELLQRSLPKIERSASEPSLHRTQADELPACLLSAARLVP
UniProt Q96GD4, whole entry: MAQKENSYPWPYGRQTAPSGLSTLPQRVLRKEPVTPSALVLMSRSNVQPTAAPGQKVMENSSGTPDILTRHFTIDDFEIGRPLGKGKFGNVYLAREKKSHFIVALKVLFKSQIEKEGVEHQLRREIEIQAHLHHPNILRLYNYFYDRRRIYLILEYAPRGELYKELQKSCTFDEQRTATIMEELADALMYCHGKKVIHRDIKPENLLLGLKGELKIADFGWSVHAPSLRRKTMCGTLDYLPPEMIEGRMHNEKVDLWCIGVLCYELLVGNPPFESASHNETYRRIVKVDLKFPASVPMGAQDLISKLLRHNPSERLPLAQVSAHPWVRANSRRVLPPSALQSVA
UniProt Q9UQB9: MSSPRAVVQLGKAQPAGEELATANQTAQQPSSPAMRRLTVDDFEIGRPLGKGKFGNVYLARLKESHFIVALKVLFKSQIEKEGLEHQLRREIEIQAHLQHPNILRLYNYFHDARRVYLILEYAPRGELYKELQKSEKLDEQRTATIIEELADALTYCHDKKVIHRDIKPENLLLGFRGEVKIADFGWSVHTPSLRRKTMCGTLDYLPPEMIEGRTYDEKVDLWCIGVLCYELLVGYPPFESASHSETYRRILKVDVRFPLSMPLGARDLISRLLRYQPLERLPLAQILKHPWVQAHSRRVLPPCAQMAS
UniProt P51451: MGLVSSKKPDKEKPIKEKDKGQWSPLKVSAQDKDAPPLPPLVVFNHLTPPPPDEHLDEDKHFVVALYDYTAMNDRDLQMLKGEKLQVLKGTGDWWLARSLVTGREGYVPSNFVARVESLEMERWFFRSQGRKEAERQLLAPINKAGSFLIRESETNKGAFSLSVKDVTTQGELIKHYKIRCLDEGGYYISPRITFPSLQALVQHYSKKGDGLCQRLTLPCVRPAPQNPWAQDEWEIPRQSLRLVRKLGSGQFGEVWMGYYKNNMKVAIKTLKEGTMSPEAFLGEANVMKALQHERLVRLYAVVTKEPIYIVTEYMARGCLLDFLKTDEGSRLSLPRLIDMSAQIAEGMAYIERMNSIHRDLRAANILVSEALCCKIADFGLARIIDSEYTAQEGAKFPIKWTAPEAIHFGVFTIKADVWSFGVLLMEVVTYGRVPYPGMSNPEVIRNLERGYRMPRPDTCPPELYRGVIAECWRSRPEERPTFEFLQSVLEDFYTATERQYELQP
UniProt P51813: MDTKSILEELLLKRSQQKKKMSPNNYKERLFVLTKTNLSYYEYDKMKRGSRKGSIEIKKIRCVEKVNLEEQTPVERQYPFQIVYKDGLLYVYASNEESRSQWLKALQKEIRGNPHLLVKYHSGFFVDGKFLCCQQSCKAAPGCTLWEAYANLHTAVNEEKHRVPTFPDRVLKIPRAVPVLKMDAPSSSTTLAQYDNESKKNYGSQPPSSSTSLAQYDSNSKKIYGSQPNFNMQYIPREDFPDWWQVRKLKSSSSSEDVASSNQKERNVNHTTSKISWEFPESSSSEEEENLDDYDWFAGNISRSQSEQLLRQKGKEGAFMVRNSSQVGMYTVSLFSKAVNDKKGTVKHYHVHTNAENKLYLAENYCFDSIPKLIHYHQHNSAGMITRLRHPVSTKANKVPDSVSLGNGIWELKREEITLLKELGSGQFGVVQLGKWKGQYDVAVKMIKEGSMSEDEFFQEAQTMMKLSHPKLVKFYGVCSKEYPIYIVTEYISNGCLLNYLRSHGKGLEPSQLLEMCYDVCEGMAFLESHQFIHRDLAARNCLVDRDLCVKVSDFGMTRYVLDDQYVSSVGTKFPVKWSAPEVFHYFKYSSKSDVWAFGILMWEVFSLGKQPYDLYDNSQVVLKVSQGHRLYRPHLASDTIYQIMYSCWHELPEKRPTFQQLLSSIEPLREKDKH
UniProt P15056, whole entry, looked up: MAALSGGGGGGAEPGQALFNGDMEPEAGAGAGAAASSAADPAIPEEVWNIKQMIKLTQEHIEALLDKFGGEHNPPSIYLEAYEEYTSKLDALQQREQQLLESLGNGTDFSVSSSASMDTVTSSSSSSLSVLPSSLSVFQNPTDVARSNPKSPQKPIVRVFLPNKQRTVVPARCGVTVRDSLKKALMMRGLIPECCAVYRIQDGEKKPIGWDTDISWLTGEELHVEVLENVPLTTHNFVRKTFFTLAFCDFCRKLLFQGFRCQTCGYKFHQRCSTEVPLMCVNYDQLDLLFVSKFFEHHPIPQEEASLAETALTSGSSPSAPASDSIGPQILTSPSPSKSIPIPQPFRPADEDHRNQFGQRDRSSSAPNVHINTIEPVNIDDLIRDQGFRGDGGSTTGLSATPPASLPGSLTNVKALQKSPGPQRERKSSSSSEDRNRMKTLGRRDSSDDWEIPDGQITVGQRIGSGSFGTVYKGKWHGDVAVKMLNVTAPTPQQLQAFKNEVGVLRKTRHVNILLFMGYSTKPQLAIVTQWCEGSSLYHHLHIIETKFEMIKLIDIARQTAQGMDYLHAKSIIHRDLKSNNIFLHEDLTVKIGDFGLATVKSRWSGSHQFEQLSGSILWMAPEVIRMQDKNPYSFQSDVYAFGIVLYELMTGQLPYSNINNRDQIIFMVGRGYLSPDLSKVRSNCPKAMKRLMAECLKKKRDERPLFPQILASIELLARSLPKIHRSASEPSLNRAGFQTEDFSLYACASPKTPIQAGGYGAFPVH

Legend:
Details in all cases: K562; 2-18 h
STK38 = STK38 (UniProt Q15208); assay: kinase-Nluc reporter destabilization hit call (1 = scored as downregulated) (binary); higher = compound decreases kinase abundance
SYK = SYK (UniProt P43405); assay: as above
TEC = TEC (UniProt P42680); assay: as above
TYK2 = TYK2 (UniProt P29597); assay: as above
ULK3 = ULK3 (UniProt Q6PHR2); assay: as above
YES1 = YES1 (UniProt P07947); assay: as above
ZAK = ZAK (UniProt Q9NYL2); assay: as above
ZAP70 = ZAP70 (UniProt P43403); assay: as above
ABL1 = ABL1 (UniProt P00519); assay: number of time points (of 5) at which kinase-Nluc abundance scored as decreased, DMSO-normalised (count); higher = more persistent destabilization
AKT1 = AKT1 (UniProt P31749); assay: as above
ALK = ALK (UniProt Q9UM73); assay: as above
ARAF = ARAF (UniProt P10398); assay: as above
AURKA = AURKA (UniProt O14965); assay: as above
AURKB = AURKB (UniProt Q96GD4); assay: as above
AURKC = AURKC (UniProt Q9UQB9); assay: as above
BLK = BLK (UniProt P51451); assay: as above
BMX = BMX (UniProt P51813); assay: as above
BRAF = BRAF (UniProt P15056); assay: as above
BRAF_V600E = assay: as above
BTK = BTK (UniProt Q06187); assay: as above

SMILES	kinase-Nluc reporter destabilization hit call (STK38)	kinase-Nluc reporter destabilization hit call (SYK)	kinase-Nluc reporter destabilization hit call (TEC)	kinase-Nluc reporter destabilization hit call (TYK2)	kinase-Nluc reporter destabilization hit call (ULK3)	kinase-Nluc reporter destabilization hit call (YES1)	kinase-Nluc reporter destabilization hit call (ZAK)	kinase-Nluc reporter destabilization hit call (ZAP70)	number of time points (ABL1)	number of time points (AKT1)	number of time points (ALK)	number of time points (ARAF)	number of time points (AURKA)	number of time points (AURKB)	number of time points (AURKC)	number of time points (BLK)	number of time points (BMX)	number of time points (BRAF)	number of time points (BRAF_V600E)	number of time points (BTK)
C[C@@H](N)COc1ccc(-c2cnc3ccc(N[C@H](C)c4cccc(F)c4)nn23)cc1 [Taletrectinib] (2.5 µM)	inactive: 0	inactive: 0	inactive: 0	inactive: 0	inactive: 0	inactive: 0	inactive: 0	inactive: 0	0	0	0	0	0	0	0	0	0	0	0	0
COc1ccc2c(c1)C[C@H](C(=O)Nc1ccc(-c3cn[nH]c3)cc1OCCN(C)C)CO2 [Chroman 1] (10 µM)	inactive: 0	inactive: 0	inactive: 0	inactive: 0	inactive: 0	inactive: 0	inactive: 0	inactive: 0	0	0	0	0	0	0	0	0	0	0	0	0
C=CCN(/C=C1/C(=O)O[C@H](COC)[C@@]2(C)C1=C(O)C(=O)C1=C2[C@H](OC(C)=O)C[C@]2(C)C(=O)CC[C@@H]12)CC=C [Sonolisib] (2.5 µM)	inactive: 0	inactive: 0	inactive: 0	inactive: 0	inactive: 0	inactive: 0	inactive: 0	inactive: 0	2	0	0	0	3	0	0	1	0	1	1	0
CNC(=O)c1c(C)oc2cc(Oc3ncnc4cc(OC)c(OC)cc34)ccc12 [Fruquintinib] (10 µM)	inactive: 0	inactive: 0	inactive: 0	inactive: 0	inactive: 0	inactive: 0	inactive: 0	inactive: 0	0	0	0	0	0	0	0	0	0	0	0	0
Cc1ccc(-c2csc(Cn3nc(CC4OCCCO4)c4ccccc4c3=O)n2)cc1 (10 µM)	inactive: 0	inactive: 0	inactive: 0	inactive: 0	inactive: 0	inactive: 0	inactive: 0	inactive: 0	0	0	0	0	0	0	0	0	0	0	0	0
C=CC(=O)Nc1cccc(Oc2nc(Nc3ccc(N4CCN(C)CC4)cc3)ncc2Cl)c1 (2.5 µM)	inactive: 0	inactive: 0	inactive: 0	inactive: 0	inactive: 0	inactive: 0	inactive: 0	inactive: 0	0	0	0	0	0	0	0	0	0	0	0	0
N#Cc1cn([C@@H]2O[C@H](CO)[C@@H](O)[C@H]2O)c2nc[nH]c(=O)c12 [Jaspamycin] (10 µM)	inactive: 0	inactive: 0	inactive: 0	inactive: 0	inactive: 0	inactive: 0	inactive: 0	inactive: 0	0	0	0	0	0	0	0	0	0	0	0	0
CN(C)CCCNc1ccn2ncc(-c3ccc4c(c3)OCO4)c2n1 (10 µM)	inactive: 0	inactive: 0	inactive: 0	inactive: 0	inactive: 0	inactive: 0	inactive: 0	inactive: 0	0	0	0	0	0	0	0	0	0	0	0	0
Cc1cccc(-c2[nH]c(C(C)(C)C)nc2-c2ccc3c(c2)OCO3)n1 (2.5 µM)	inactive: 0	inactive: 0	inactive: 0	inactive: 0	inactive: 0	inactive: 0	inactive: 0	inactive: 0	0	0	0	0	0	0	0	0	0	0	0	0
CNS(=O)(=O)Nc1nccc(Cc2c(C)c3ccc(Oc4ncccn4)cc3oc2=O)c1F (10 µM)	inactive: 0	inactive: 0	inactive: 0	inactive: 0	inactive: 0	inactive: 0	inactive: 0	inactive: 0	1	0	1	0	1	0	0	0	0	0	1	0

Record cards, from the list above. Order of values: kinase-Nluc reporter destabilization hit call (STK38)	kinase-Nluc reporter destabilization hit call (SYK)	kinase-Nluc reporter destabilization hit call (TEC)	kinase-Nluc reporter destabilization hit call (TYK2)	kinase-Nluc reporter destabilization hit call (ULK3)	kinase-Nluc reporter destabilization hit call (YES1)	kinase-Nluc reporter destabilization hit call (ZAK)	kinase-Nluc reporter destabilization hit call (ZAP70)	number of time points (ABL1)	number of time points (AKT1)	number of time points (ALK)	number of time points (ARAF)	number of time points (AURKA)	number of time points (AURKB)	number of time points (AURKC)	number of time points (BLK)	number of time points (BMX)	number of time points (BRAF)	number of time points (BRAF_V600E)	number of time points (BTK)
C[C@@H](N)COc1ccc(-c2cnc3ccc(N[C@H](C)c4cccc(F)c4)nn23)cc1 [Taletrectinib] (2.5 µM) is listed with inactive: 0	inactive: 0	inactive: 0	inactive: 0	inactive: 0	inactive: 0	inactive: 0	inactive: 0	0	0	0	0	0	0	0	0	0	0	0	0
CNS(=O)(=O)Nc1nccc(Cc2c(C)c3ccc(Oc4ncccn4)cc3oc2=O)c1F (10 µM) is listed with inactive: 0	inactive: 0	inactive: 0	inactive: 0	inactive: 0	inactive: 0	inactive: 0	inactive: 0	1	0	1	0	1	0	0	0	0	0	1	0
